Results are given in words; binding and its absence hold for the method and conditions named. Binding seen in cells or lysates may run through a third protein. Some binding calls cover weakened binding; strength is not graded here. For part of these data: Tags and fused reporters may be left off the sequences shown.
T1: GST-tagged ZMIZ2 (392–527) (UniProt Q8NF64)
T1 sequence: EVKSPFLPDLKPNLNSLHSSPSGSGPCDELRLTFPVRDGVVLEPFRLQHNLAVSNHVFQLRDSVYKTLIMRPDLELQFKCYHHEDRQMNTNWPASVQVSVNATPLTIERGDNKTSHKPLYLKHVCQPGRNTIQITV

Chains of the proteins cited; added tags and fusions are not shown. Lines headed by an entry give the natural chain unless they say otherwise; changes in a name come on top. A line that says so, or that is headed by a name, gives the form on record, which may keep a tag or linker. Residues count along the entry.
UniProt P10275: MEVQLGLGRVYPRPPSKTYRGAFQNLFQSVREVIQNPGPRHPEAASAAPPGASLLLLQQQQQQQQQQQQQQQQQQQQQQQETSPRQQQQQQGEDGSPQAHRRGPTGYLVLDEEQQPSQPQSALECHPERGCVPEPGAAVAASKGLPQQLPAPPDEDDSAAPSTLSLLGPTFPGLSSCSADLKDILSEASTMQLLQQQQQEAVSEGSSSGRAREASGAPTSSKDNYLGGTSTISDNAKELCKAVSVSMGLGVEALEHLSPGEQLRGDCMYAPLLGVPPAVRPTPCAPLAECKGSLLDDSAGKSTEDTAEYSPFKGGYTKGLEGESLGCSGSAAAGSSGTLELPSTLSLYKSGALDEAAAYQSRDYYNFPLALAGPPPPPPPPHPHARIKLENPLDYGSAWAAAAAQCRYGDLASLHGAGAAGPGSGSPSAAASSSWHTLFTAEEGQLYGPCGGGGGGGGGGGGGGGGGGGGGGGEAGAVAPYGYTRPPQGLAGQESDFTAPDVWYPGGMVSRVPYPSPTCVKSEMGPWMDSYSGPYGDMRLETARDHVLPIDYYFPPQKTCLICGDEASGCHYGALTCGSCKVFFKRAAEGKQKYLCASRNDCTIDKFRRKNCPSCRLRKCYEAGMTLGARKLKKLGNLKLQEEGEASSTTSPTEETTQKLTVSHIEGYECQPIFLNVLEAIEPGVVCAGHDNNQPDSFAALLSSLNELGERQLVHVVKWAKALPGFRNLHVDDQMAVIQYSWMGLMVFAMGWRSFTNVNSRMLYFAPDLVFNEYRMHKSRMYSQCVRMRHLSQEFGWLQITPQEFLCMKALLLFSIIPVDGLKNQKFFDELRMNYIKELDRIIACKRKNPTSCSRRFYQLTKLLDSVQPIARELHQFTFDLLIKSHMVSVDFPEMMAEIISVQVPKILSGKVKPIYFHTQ
GST-tagged AR (1–333): residues 1-333 of P10275
UniProt O14929: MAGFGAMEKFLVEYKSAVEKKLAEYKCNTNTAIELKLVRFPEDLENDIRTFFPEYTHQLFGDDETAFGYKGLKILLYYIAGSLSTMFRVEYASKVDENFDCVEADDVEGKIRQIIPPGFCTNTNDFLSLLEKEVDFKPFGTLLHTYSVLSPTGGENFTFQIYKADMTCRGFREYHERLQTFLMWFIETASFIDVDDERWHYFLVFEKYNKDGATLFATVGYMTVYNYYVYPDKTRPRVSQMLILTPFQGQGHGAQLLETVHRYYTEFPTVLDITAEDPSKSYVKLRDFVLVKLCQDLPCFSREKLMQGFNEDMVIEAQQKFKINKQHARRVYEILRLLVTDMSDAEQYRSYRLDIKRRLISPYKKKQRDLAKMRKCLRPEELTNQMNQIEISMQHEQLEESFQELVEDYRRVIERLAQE
UniProt Q09472: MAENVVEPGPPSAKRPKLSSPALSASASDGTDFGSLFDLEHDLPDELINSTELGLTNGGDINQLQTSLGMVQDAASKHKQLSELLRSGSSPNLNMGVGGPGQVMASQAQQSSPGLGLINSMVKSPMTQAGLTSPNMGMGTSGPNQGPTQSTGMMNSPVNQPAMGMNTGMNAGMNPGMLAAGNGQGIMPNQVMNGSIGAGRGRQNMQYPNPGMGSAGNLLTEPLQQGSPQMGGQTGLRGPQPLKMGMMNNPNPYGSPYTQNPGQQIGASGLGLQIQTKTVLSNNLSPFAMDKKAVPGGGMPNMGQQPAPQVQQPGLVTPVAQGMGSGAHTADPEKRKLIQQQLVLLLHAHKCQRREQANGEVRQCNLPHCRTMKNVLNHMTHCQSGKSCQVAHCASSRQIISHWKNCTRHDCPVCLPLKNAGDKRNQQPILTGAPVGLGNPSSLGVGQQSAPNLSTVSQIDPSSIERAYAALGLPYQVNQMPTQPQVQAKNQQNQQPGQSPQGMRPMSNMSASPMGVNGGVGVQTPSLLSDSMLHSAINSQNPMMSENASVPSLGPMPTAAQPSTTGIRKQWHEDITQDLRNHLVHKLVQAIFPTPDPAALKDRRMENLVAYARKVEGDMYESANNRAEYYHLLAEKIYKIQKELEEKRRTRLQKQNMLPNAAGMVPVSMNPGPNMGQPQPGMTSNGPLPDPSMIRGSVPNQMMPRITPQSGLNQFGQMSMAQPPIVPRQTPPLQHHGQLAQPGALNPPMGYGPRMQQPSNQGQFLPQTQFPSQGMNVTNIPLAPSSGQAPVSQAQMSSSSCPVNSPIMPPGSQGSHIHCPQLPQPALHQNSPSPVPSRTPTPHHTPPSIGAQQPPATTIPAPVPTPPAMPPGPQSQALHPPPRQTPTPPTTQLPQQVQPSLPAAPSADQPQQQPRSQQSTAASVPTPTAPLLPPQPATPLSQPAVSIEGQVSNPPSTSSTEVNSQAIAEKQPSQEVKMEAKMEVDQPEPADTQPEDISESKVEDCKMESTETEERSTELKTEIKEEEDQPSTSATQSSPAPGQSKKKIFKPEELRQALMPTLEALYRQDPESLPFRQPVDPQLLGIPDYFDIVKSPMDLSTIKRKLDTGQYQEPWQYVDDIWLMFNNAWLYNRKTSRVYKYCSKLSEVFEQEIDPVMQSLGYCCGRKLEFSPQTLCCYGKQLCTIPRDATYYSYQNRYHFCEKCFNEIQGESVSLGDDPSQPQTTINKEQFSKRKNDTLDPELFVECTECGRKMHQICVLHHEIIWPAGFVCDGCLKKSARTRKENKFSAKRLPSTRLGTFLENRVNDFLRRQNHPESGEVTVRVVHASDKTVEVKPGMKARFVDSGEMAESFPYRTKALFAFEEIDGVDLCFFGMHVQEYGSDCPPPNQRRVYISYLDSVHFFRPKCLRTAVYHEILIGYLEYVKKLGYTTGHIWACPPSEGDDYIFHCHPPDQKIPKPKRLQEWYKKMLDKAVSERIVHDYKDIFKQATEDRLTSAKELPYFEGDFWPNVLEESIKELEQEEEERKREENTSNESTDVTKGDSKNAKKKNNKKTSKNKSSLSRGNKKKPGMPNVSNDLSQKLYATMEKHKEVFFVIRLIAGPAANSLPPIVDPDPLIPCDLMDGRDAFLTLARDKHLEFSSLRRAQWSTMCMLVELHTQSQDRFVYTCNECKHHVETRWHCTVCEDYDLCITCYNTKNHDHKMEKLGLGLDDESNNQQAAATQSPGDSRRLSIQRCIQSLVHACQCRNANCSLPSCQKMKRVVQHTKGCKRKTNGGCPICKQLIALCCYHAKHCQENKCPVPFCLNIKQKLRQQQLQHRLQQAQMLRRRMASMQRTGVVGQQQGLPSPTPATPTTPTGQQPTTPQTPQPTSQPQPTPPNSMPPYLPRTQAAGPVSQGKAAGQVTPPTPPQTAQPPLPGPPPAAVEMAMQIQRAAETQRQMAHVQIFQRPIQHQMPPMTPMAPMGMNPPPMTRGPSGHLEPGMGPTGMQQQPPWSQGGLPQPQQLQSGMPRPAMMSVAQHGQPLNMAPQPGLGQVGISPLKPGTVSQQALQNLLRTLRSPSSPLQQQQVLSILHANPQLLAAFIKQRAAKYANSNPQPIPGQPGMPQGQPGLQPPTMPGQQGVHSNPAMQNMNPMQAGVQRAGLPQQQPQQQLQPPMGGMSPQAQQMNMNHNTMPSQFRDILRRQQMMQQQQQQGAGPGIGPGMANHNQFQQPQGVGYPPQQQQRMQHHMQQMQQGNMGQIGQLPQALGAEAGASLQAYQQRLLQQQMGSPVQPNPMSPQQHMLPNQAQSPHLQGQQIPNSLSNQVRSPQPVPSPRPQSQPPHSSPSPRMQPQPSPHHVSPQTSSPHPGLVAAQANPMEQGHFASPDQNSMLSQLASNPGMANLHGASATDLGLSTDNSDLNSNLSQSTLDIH
UniProt Q8WYB5: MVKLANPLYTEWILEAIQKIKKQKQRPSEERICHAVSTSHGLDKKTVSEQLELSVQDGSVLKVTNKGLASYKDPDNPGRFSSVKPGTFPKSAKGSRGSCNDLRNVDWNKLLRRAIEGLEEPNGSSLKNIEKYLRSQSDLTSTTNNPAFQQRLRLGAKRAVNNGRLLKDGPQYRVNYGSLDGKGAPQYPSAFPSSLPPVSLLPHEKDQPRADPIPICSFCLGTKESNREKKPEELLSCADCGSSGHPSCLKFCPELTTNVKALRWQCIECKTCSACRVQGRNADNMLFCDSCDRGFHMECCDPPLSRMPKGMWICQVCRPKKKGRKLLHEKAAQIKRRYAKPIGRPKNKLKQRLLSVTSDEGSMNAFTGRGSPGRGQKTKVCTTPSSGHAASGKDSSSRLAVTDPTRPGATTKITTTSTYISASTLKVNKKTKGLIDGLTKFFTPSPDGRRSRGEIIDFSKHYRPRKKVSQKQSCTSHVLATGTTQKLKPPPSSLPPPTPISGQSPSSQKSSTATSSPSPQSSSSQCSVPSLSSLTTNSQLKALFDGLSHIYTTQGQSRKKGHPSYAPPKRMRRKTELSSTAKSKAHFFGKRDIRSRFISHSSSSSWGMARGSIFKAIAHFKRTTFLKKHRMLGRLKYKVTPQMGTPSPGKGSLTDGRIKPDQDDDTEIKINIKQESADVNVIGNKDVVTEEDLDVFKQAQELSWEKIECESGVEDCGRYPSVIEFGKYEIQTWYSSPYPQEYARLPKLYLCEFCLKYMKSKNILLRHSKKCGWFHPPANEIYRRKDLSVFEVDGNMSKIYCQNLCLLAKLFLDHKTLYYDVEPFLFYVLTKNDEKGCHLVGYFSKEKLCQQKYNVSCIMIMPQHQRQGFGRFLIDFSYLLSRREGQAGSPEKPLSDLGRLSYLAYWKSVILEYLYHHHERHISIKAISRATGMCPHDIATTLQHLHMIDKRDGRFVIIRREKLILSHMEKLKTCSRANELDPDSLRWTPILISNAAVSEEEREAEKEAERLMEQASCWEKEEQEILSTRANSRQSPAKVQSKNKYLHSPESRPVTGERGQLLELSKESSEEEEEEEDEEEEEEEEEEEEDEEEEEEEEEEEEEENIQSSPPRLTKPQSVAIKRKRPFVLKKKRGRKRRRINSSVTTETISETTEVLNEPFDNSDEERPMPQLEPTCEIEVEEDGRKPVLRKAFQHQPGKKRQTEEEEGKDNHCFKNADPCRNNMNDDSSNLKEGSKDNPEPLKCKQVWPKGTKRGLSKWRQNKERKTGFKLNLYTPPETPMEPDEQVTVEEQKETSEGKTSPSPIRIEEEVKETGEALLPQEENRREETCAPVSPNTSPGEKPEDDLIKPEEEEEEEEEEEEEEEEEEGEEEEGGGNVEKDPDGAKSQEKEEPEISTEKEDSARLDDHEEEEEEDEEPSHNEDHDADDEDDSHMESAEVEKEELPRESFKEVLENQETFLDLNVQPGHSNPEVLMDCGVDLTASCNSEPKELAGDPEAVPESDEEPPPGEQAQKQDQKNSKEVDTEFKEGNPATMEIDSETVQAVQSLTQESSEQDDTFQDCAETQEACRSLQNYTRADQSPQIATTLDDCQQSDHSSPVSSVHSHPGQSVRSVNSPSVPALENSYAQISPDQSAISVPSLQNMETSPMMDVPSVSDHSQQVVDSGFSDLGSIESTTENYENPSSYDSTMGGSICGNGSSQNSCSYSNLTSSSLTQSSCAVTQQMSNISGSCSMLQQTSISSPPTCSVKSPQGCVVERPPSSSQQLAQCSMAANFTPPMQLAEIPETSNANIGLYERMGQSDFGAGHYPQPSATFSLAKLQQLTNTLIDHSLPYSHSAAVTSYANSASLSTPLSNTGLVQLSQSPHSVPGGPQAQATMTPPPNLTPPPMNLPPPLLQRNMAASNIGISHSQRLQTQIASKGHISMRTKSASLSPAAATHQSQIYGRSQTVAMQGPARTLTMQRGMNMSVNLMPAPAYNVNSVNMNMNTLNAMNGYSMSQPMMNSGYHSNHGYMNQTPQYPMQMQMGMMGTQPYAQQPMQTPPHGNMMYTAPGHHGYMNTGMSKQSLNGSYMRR

T2: Zinc finger MIZ domain-containing protein 2 (ZMIZ2) (human (endogenous in LNCaP and 22RV1)) (UniProt Q8NF64)
T2 sequence: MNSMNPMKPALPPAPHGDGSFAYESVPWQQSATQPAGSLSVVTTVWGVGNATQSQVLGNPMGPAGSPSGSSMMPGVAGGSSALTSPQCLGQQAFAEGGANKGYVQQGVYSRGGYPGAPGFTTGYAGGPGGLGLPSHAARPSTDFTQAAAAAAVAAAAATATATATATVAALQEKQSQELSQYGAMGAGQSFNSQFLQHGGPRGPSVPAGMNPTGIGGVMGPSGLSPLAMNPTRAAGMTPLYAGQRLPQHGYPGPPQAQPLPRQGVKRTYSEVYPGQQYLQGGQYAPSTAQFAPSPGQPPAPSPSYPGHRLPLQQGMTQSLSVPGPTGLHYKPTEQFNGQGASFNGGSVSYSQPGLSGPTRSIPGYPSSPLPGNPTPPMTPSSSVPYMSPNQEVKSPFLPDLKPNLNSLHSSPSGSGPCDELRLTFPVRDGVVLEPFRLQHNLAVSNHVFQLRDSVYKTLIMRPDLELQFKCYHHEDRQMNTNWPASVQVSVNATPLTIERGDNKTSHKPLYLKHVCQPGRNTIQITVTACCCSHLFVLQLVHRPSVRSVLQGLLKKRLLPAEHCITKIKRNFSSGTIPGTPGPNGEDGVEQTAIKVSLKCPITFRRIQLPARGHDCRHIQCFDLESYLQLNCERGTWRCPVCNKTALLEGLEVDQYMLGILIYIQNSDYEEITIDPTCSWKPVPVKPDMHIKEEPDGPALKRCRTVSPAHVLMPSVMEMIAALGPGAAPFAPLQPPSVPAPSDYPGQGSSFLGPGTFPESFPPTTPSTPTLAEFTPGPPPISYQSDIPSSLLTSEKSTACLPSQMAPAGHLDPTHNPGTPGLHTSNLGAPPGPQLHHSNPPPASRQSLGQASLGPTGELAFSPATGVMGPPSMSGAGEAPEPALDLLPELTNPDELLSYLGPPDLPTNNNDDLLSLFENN


Key:
[1] = target: T1, GST-tagged ZMIZ2 (392–527); experiment: pull-down; GST pull-down with GST-tagged truncated forms of ZMIZ2 (against AR) and of AR (against ZMIZ2); no methods given
[2] = target: androgen receptor (AR) (human (endogenous in LNCaP and 22RV1)) (UniProt P10275); experiment: co-IP; LNCaP lysate, AR antibody 8 h at 4 °C, protein A/G agarose 4 h, five washes with lysis buffer, blot; for the acetylases with or without DHT and after ZMIZ2 silencing
[3] = target: T2, Zinc finger MIZ domain-containing protein 2 (ZMIZ2) (human (endogenous in LNCaP and 22RV1)); experiment: co-IP; IP of ZMIZ2 and blot for acetylases, in the presence or absence of DHT
[4] = target: androgen receptor (AR) (human (endogenous in LNCaP and 22RV1)) (UniProt P10275); experiment: co-IP; 22RV1 cells, endogenous proteins
[5] = target: androgen receptor (AR) (human (endogenous in LNCaP and 22RV1)) (UniProt P10275); experiment: co-IP; LNCaP lysate, AR antibody 8 h at 4 °C, protein A/G agarose 4 h, five washes with lysis buffer, blot; for the acetylases with or without DHT and after ZMIZ2 silencing; remark: listed apart in the source
[6] = target: GST-tagged AR (1–333) (UniProt P10275); experiment: pull-down; GST pull-down with GST-tagged truncated forms of ZMIZ2 (against AR) and of AR (against ZMIZ2); no methods given

binding [2] | binding [3] | Molecule | further results
 |  | AR (partner of the GST-ZMIZ2 truncated forms in the pull-down) (from UniProt P10275 1-920) (receptor) | binding [1]: binds
binds | binds | HAT1 (from UniProt O14929 1-419) (enzyme) | 
 | binds | EP300 (from UniProt Q09472 1-2414) (enzyme) | 
binds | binds | KAT6B (from UniProt Q8WYB5 1-2073) (enzyme) | 
 |  | Zinc finger MIZ domain-containing protein 2 (ZMIZ2) (protein, UniProt Q8NF64 1-920) MNSMNPMKPALPPAPHGDGSFAYESVPWQQSATQPAGSLSVVTTVWGVGNATQSQVLGNPMGPAGSPSGSSMMPGVAGGSSALTSPQCLGQQAFAEGGANKGYVQQGVYSRGGYPGAPGFTTGYAGGPGGLGLPSHAARPSTDFTQAAAAAAVAAAAATATATATATVAALQEKQSQELSQYGAMGAGQSFNSQFLQHGGPRGPSVPAGMNPTGIGGVMGPSGLSPLAMNPTRAAGMTPLYAGQRLPQHGYPGPPQAQPLPRQGVKRTYSEVYPGQQYLQGGQYAPSTAQFAPSPGQPPAPSPSYPGHRLPLQQGMTQSLSVPGPTGLHYKPTEQFNGQGASFNGGSVSYSQPGLSGPTRSIPGYPSSPLPGNPTPPMTPSSSVPYMSPNQEVKSPFLPDLKPNLNSLHSSPSGSGPCDELRLTFPVRDGVVLEPFRLQHNLAVSNHVFQLRDSVYKTLIMRPDLELQFKCYHHEDRQMNTNWPASVQVSVNATPLTIERGDNKTSHKPLYLKHVCQPGRNTIQITVTACCCSHLFVLQLVHRPSVRSVLQGLLKKRLLPAEHCITKIKRNFSSGTIPGTPGPNGEDGVEQTAIKVSLKCPITFRRIQLPARGHDCRHIQCFDLESYLQLNCERGTWRCPVCNKTALLEGLEVDQYMLGILIYIQNSDYEEITIDPTCSWKPVPVKPDMHIKEEPDGPALKRCRTVSPAHVLMPSVMEMIAALGPGAAPFAPLQPPSVPAPSDYPGQGSSFLGPGTFPESFPPTTPSTPTLAEFTPGPPPISYQSDIPSSLLTSEKSTACLPSQMAPAGHLDPTHNPGTPGLHTSNLGAPPGPQLHHSNPPPASRQSLGQASLGPTGELAFSPATGVMGPPSMSGAGEAPEPALDLLPELTNPDELLSYLGPPDLPTNNNDDLLSLFENN | binding [4]: binds; binding [5]: binds
 |  | ZMIZ2 (partner of the GST-AR truncated forms in the pull-down) (protein, UniProt Q8NF64 1-920) MNSMNPMKPALPPAPHGDGSFAYESVPWQQSATQPAGSLSVVTTVWGVGNATQSQVLGNPMGPAGSPSGSSMMPGVAGGSSALTSPQCLGQQAFAEGGANKGYVQQGVYSRGGYPGAPGFTTGYAGGPGGLGLPSHAARPSTDFTQAAAAAAVAAAAATATATATATVAALQEKQSQELSQYGAMGAGQSFNSQFLQHGGPRGPSVPAGMNPTGIGGVMGPSGLSPLAMNPTRAAGMTPLYAGQRLPQHGYPGPPQAQPLPRQGVKRTYSEVYPGQQYLQGGQYAPSTAQFAPSPGQPPAPSPSYPGHRLPLQQGMTQSLSVPGPTGLHYKPTEQFNGQGASFNGGSVSYSQPGLSGPTRSIPGYPSSPLPGNPTPPMTPSSSVPYMSPNQEVKSPFLPDLKPNLNSLHSSPSGSGPCDELRLTFPVRDGVVLEPFRLQHNLAVSNHVFQLRDSVYKTLIMRPDLELQFKCYHHEDRQMNTNWPASVQVSVNATPLTIERGDNKTSHKPLYLKHVCQPGRNTIQITVTACCCSHLFVLQLVHRPSVRSVLQGLLKKRLLPAEHCITKIKRNFSSGTIPGTPGPNGEDGVEQTAIKVSLKCPITFRRIQLPARGHDCRHIQCFDLESYLQLNCERGTWRCPVCNKTALLEGLEVDQYMLGILIYIQNSDYEEITIDPTCSWKPVPVKPDMHIKEEPDGPALKRCRTVSPAHVLMPSVMEMIAALGPGAAPFAPLQPPSVPAPSDYPGQGSSFLGPGTFPESFPPTTPSTPTLAEFTPGPPPISYQSDIPSSLLTSEKSTACLPSQMAPAGHLDPTHNPGTPGLHTSNLGAPPGPQLHHSNPPPASRQSLGQASLGPTGELAFSPATGVMGPPSMSGAGEAPEPALDLLPELTNPDELLSYLGPPDLPTNNNDDLLSLFENN | binding [6]: binds

Reference: article PMC12758332
